Reference: patent US20160347810A1 (AFASCI, published 2016)
Results are given in words; binding and its absence hold for the method and conditions named. Some results given as binding are weak or reduced against the parent protein; the word gives no strength.

By UniProt entry, the sequences of proteins in these tests, tags left out. Where a name states a change or a piece, a line headed by the entry shows the natural chain unless it says otherwise.
UniProt Q16602: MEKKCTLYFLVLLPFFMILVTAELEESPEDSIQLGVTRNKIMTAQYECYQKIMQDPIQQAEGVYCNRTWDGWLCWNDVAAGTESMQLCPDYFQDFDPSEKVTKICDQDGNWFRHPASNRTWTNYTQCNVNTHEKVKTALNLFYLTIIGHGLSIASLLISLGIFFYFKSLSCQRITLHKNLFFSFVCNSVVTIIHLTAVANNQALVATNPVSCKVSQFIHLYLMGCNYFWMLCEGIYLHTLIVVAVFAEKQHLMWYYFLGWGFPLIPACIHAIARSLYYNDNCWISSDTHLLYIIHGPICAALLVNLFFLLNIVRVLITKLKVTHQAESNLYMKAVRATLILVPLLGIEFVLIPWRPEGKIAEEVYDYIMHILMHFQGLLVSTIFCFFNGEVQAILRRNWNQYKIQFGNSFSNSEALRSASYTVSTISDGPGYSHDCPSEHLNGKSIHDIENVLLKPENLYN

Molecular target: T1, human calcitonin CGRP1 (CGRP1) membrane (human, UniProt Q16602 23-461; O60894 27-148)
T1 construct: whole, on cells; Purchased membrane preparation (Perkin Elmer), homogenised in assay buffer; the receptor stood in membranes, not intact cells; also called CGRP receptors; CGRP receptor
Assay: radioligand competition binding on human CGRP1 receptor membranes

- binding: binds
B1: CGRP 27-37 (peptide)
peptide: YVPTAVGPFAF
modifications: C-terminal amide
